Results published in patent US11865129B2, “Application of anemoside B4 in preparation of a drug for treatment or prevention of psoriasis” (GUANGXI XINHAI PHARMACEUTICAL TECHNOLOGY CO., LTD., priority 2021, dated 2024).
Some of these results come from one statement about several compounds together.

System: 5% imiquimod-induced psoriatic lesions
Experiment: Psoriatic lesions and PASI, 5% imiquimod-induced psoriasis model in mice (first animal group)
Format: in vivo, BALB/c male mice
Details: 12 days, model control group reaches 6
Procedure: A shaving area on the back of the mice in each group is 2.5 cm×3 cm, and the vellus is removed with mild depilatory cream. The mice of each group except the blank control group are modeled by administrating 62.5 mg 5% imiquimod cream on the shaving area until the skin is thickened and has erythema and silver scales for modeling completely. During the model establishment, 5% imiquimod cream is administrated once a day, and continuously administrated for 14 days. On the third day, the model establishment is continued and drugs are administered at the same time, wherein the mice in the AC intragastric administration group (8 mg/kg), the anemoside B4 intragastric (i.g.) administration group (5 mg/kg), the anemoside B4 intragastric administration group (10 mg/kg), and the anemoside B4 intragastric administration group (20 mg/kg) are administrated once a day, and continuously administrated for 12 days. […] The mice in the blank control group and the model control group are applied 62.5 mg Vaseline to the skin lesions once a day, and continuously applied for 12 days. The weight of the mice is recorded for counting the weight change of the mice.

Measured: average value of PASI

C=C(C)[C@@H]1CC[C@]2(C(=O)O[C@@H]3O[C@H](CO[C@@H]4O[C@H](CO)[C@@H](O[C@@H]5O[C@@H](C)[C@H](O)[C@@H](O)[C@H]5O)[C@H](O)[C@H]4O)[C@@H](O)[C@H](O)[C@H]3O)CC[C@]3(C)[C@H](CC[C@@H]4[C@@]5(C)CC[C@H](O[C@@H]6OC[C@H](O)[C@H](O)[C@H]6O[C@@H]6O[C@@H](C)[C@H](O)[C@@H](O)[C@H]6O)[C@@](C)(CO)[C@@H]5CC[C@]43C)[C@H]12 [anemoside B4]
≤ 3: intragastric 5 mg/kg once a day | intragastric 10 mg/kg once a day | intragastric 20 mg/kg once a day
